This note sets out measurements from patent publication US20030007975A1.

Amino acid sequences for entries named in this document (tags omitted). A change or cut given only in a name is not applied to a line headed by its entry.
UniProt Q02099: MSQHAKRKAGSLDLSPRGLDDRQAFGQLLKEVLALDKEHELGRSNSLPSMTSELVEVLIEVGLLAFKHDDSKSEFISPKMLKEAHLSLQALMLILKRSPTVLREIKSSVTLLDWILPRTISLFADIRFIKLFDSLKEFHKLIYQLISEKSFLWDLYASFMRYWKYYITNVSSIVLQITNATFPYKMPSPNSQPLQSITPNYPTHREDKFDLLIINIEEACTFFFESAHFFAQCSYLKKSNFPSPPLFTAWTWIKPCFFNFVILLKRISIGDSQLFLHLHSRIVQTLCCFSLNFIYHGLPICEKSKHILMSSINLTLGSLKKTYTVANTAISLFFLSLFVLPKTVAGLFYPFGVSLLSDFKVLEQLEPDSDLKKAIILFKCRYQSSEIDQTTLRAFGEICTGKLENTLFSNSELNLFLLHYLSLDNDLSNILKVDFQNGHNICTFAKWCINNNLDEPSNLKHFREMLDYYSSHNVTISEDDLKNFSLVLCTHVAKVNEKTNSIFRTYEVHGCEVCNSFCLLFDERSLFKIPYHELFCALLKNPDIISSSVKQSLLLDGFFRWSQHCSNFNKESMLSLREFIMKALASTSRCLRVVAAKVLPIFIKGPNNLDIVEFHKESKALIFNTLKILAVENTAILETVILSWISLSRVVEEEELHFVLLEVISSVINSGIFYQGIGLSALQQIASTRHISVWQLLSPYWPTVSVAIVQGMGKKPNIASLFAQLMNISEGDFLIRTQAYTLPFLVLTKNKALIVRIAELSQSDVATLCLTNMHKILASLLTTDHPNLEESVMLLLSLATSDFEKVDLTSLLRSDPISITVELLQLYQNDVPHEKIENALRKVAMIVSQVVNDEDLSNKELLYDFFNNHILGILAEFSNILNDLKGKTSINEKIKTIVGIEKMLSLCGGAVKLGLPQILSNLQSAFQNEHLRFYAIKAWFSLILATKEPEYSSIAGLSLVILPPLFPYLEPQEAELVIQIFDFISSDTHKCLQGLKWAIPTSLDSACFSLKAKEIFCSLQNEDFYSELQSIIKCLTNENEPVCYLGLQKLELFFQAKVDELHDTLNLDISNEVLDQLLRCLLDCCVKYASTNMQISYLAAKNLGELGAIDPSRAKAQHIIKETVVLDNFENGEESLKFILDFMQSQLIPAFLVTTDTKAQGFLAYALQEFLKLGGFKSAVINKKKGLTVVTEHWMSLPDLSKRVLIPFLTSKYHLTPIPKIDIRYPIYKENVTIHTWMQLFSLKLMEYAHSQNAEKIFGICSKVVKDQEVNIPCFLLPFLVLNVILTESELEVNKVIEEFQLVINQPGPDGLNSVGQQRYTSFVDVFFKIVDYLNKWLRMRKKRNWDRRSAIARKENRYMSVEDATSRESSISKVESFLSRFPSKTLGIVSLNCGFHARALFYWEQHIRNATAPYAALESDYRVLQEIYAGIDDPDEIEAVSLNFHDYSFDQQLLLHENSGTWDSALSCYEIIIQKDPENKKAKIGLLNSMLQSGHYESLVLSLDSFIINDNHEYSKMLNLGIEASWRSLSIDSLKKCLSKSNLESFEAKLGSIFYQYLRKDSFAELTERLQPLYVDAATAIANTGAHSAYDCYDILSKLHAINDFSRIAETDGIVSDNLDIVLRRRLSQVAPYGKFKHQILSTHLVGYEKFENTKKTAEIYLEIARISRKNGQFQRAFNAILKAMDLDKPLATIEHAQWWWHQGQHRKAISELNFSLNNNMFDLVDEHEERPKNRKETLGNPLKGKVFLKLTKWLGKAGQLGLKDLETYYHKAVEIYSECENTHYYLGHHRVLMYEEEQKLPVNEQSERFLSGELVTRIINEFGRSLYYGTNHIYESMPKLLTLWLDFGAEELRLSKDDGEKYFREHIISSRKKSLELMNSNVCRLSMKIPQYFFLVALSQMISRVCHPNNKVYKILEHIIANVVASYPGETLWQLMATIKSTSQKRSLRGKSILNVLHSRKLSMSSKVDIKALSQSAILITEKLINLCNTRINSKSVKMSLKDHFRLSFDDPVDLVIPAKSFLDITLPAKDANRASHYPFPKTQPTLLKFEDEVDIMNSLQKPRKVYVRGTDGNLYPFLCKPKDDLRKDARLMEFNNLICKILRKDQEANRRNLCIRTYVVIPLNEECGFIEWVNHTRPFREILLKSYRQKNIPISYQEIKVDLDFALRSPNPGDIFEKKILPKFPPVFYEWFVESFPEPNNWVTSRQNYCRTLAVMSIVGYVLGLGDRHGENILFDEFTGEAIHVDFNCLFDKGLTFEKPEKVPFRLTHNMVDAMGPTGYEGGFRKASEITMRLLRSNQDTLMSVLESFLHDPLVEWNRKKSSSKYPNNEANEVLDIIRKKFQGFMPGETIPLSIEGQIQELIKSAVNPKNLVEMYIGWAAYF
UniProt Q13535: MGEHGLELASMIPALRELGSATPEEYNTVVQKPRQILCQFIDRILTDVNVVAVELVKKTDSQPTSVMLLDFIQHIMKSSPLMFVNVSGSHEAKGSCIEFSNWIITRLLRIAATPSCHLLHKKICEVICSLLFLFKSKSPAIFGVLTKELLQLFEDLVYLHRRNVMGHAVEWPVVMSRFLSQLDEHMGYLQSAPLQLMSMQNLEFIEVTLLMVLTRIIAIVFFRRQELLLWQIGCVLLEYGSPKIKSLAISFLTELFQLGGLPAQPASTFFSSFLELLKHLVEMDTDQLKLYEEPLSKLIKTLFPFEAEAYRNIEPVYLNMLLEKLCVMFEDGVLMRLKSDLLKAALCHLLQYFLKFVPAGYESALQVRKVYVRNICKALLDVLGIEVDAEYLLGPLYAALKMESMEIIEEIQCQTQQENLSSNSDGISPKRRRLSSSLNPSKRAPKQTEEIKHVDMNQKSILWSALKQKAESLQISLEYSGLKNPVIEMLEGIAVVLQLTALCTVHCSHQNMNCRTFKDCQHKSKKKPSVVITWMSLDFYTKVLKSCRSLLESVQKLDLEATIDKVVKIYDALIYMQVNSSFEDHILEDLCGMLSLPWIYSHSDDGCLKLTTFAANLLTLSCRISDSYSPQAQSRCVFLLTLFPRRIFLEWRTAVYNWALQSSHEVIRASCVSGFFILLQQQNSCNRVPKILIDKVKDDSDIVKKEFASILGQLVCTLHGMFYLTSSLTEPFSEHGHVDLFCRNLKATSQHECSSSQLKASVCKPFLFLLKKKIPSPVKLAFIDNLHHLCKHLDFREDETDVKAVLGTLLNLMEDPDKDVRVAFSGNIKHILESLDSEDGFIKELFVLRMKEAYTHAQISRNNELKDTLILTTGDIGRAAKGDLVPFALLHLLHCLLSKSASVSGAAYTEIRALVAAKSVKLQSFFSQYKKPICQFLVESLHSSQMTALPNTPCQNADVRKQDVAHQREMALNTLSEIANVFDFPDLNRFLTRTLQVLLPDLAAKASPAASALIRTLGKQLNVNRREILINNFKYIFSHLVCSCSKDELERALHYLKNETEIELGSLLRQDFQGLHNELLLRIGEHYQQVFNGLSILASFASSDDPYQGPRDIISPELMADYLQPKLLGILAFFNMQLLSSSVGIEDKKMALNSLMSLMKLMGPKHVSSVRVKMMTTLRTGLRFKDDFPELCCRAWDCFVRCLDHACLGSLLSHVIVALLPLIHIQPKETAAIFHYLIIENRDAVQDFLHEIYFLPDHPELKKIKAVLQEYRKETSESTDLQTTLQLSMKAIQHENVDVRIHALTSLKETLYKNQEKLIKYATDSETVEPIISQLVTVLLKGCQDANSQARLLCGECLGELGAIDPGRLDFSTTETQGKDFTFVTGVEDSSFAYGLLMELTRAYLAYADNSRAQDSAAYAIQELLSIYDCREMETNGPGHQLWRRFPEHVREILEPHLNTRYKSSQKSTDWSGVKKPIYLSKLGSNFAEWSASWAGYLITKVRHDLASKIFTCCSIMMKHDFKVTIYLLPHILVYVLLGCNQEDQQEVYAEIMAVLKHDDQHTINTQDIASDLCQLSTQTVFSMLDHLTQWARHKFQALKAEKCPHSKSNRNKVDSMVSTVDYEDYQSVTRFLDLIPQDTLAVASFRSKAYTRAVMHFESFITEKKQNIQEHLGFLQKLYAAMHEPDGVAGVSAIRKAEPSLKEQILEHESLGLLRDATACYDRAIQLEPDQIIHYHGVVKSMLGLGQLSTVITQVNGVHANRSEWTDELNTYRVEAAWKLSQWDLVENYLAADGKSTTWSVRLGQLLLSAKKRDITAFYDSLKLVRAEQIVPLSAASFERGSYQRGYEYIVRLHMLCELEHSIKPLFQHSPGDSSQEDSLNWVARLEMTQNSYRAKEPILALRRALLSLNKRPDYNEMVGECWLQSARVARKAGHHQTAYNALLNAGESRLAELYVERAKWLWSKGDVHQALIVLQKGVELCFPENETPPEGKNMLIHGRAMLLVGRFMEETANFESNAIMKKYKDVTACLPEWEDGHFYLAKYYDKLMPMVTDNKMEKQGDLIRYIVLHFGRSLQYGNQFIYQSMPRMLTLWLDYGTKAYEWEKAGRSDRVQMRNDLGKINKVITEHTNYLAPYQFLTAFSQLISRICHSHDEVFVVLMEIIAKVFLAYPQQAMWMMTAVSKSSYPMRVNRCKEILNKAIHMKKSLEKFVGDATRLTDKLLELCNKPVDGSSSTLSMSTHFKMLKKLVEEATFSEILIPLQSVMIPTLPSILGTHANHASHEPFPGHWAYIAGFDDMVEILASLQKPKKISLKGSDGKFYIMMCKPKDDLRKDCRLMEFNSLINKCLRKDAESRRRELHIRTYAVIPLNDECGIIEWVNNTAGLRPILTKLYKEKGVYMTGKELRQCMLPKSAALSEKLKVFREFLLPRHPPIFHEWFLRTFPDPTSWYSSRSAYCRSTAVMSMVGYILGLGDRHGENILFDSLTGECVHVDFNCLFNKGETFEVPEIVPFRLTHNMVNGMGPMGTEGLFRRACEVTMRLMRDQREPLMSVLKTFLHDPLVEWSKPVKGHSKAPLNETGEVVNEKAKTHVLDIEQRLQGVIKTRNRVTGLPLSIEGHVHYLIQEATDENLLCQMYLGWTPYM

No constants are given. Whether binding was seen depends on the method and setting. Binding seen in cells or lysates may run through a third protein. Some entries that bind do so weakly or less than the wild type.

The target in assay [1] is myc-tagged S. pombe Rad3 (full length Rad3 with two myc epitope tags at the N terminus) (Schizosaccharomyces pombe) (UniProt Q02099). As to the kind of experiment: reciprocal co-immunoprecipitation from S. pombe cells expressing ATR and myc-tagged Rad3.
Assay [2] has the same target. As to the kind of experiment: reciprocal co-immunoprecipitation from S. pombe cells expressing both tagged constructs.

On to “human ATR protein (from UniProt Q13535 1-2644) (enzyme)”, for which the binding result in assay [1] is on record as “binds”.

As to “HA tagged S. pombe Rad3 (full length Rad3 with a triple HA epitope tag at the N terminus) (from UniProt Q02099 1-2386) (enzyme)”, the binding result in assay [2] is on record as “binds”.
